Results deposited as PubChem BioAssay AID1159584 (Peter MacCallum Cancer Centre, 2016).

Screen: 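Genes that CDH1-null MCF10A cells selectively depend on to survive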 (primary screen)
Cell system: human MCF10A breast epithelial cells, parental and CDH1-null
Reagent: siRNA against human genes
Measurement: 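Cell viability by CellTiter-Glo ATP luminescence, each line scaled to the mean of mock wells across plates, then CDH1-null over parental ratio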
Scale: CDH1-null / parental viability ratio: higher = CDH1-null cells survive relatively better than parental; CDH1-null viability vs mock: higher = more viable CDH1-null cells
In all, the deposit lists about 18,000 reagents; below is a random part of them. Not all columns of the deposit are shown. The record does not give: the amount of reagent, the time to read-out.

Target gene	CDH1-null / parental viability ratio	CDH1-null viability vs mock (fraction of mock)
FRMD6 (FERM domain containing 6)	0.78	0.42
ATP6V0C (ATPase H+ transporting V0 subunit c)	1.22	0.66
DKK4 (dickkopf Wnt signaling pathway inhibitor 4)	1.53	0.72
NOXA1 (NADPH oxidase activator 1)	1.19	0.64
FAM89B (family with sequence similarity 89 member B)	0.76	0.56
TXNDC2 (thioredoxin domain containing 2)	0.88	0.76
TFB1M (transcription factor B1, mitochondrial)	1.04	0.96
ANXA2 (annexin A2)	1.08	0.84
LRRCC1 (leucine rich repeat and coiled-coil centrosomal protein 1)	1.03	0.64
ETV3L (ETS variant transcription factor 3 like)	0.54	0.34
KCTD18 (potassium channel tetramerization domain containing 18)	0.82	0.64
SLC35D2	0.99	0.85
RAB27B (RAB27B, member RAS oncogene family)	0.81	0.78
NLRP9 (NLR family pyrin domain containing 9)	0.94	0.98
PLEKHG5 (pleckstrin homology and RhoGEF domain containing G5)	0.91	0.8
MAGEB10 (MAGE family member B10)	1.06	0.68
ASB3 (ankyrin repeat and SOCS box containing 3)	1.03	0.7
OTUB2 (OTU deubiquitinase, ubiquitin aldehyde binding 2)	1.06	0.69
SYNE4 (spectrin repeat containing nuclear envelope family member 4)	1.01	0.74
POMZP3 (POM121 and ZP3 fusion)	0.8	0.7
CLNK (cytokine dependent hematopoietic cell linker)	1.49	0.88
POTED (POTE ankyrin domain family member D)	0.85	0.71
ADAM28 (ADAM metallopeptidase domain 28)	1.05	0.8
SLC35G2	0.94	0.94
ZNF280D (zinc finger protein 280D)	0.9	0.86
NUSAP1 (nucleolar and spindle associated protein 1)	0.92	0.44
PLA2G2F (phospholipase A2 group IIF)	1.27	0.76
ZBED10P (zinc finger BED-type containing 10, pseudogene)	0.71	0.64

A portion from the list above:
Target gene	CDH1-null / parental viability ratio	CDH1-null viability vs mock (fraction of mock)
LRRCC1 (leucine rich repeat and coiled-coil centrosomal protein 1)	1.03	0.64
ETV3L (ETS variant transcription factor 3 like)	0.54	0.34
KCTD18 (potassium channel tetramerization domain containing 18)	0.82	0.64

Further records follow:
Target gene	CDH1-null / parental viability ratio	CDH1-null viability vs mock (fraction of mock)
LONRF1 (LON peptidase N-terminal domain and ring finger 1)	1.01	0.97
KRTAP10-10 (keratin associated protein 10-10)	1.09	0.48
GABRG3 (gamma-aminobutyric acid type A receptor subunit gamma3)	1.09	0.94
AHI1 (Abelson helper integration site 1)	1.06	0.66
FCN3 (ficolin 3)	1.22	0.73
CRLS1 (cardiolipin synthase 1)	1.14	1.14
CCDC14 (coiled-coil domain containing 14)	0.8	0.82
RELL2 (RELT like 2)	0.94	0.79
BEND5 (BEN domain containing 5)	1.14	0.84
CDK18 (cyclin dependent kinase 18)	0.88	0.58
BAIAP2L2 (BAR/IMD domain containing adaptor protein 2 like 2)	0.96	0.78
MCM3 (minichromosome maintenance complex component 3)	1.17	0.69
MFSD2A (MFSD2 lysolipid transporter A, lysophospholipid)	1.22	0.78
PRR15L (proline rich 15 like)	0.82	0.74
GDF10 (growth differentiation factor 10)	0.71	0.45
GTF2H2 (general transcription factor IIH subunit 2)	0.74	0.92
LEF1 (lymphoid enhancer binding factor 1)	1.15	0.92
OR10K2 (olfactory receptor family 10 subfamily K member 2)	1.13	0.86
